{"source": "PubChem BioAssay AID1671195 (Yale University, 2021)", "purpose": "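Regulators of LDL receptor activity judged by labelled LDL uptake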 (primary screen)", "system": "human Huh7 hepatoma cells", "knock-down reagent": "siRNA pool against human genes, 18 nM", "duration": "about 2 to 2.5 days of knockdown, then 8 h LDL uptake", "conditions": "DiI-labelled LDL at 30 µg/ml for 8 h, in lipoprotein-deficient serum medium", "measured": "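Fluorescent LDL signal imaged in cells, scaled to the plate median, robust z-score for each replicate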", "direction": "robust z-score: higher = more LDL uptake after knockdown", "active means": "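a gene counts as active if at least two replicate z-scores exceed ±2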", "note": "In all, the deposit lists about 22,000 reagents; this is a random part of them. About 1,510 of them (6.9%) were called active. 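Active includes knockdowns raising or lowering LDL uptake; positive z-scores mean more uptake, negative mean less.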"}
{"Gene": "KCNMB3", "robust z-score, replicate 1": 0.694, "robust z-score, replicate 2": -0.256, "robust z-score, replicate 3": 0.733, "Outcome": "inactive"}
{"Gene": "C19orf84", "robust z-score, replicate 1": -0.301, "robust z-score, replicate 2": -0.496, "robust z-score, replicate 3": -0.363, "Outcome": "inactive"}
{"Gene": "MRPL52", "robust z-score, replicate 1": -1.04, "robust z-score, replicate 2": -1.1, "robust z-score, replicate 3": -1.82, "Outcome": "inactive"}
{"Gene": "CORO1B", "robust z-score, replicate 1": 0.372, "robust z-score, replicate 2": 0.642, "robust z-score, replicate 3": -0.523, "Outcome": "inactive"}
{"Gene": "GARIN5A", "robust z-score, replicate 1": -0.16, "robust z-score, replicate 2": -0.241, "robust z-score, replicate 3": 0.0457, "Outcome": "inactive"}
{"Gene": "LOC387886 (retired record)", "robust z-score, replicate 1": 0.171, "robust z-score, replicate 2": 0.0498, "robust z-score, replicate 3": 0.209, "Outcome": "inactive"}
{"Gene": "MAN2B2", "robust z-score, replicate 1": 1.63, "robust z-score, replicate 2": 1.58, "robust z-score, replicate 3": 1.01, "Outcome": "inactive"}
{"Gene": "OR51I1", "robust z-score, replicate 1": 1.59, "robust z-score, replicate 2": 2.49, "robust z-score, replicate 3": 1.6, "Outcome": "inactive"}
{"Gene": "ARHGAP4", "robust z-score, replicate 1": -1.19, "robust z-score, replicate 2": -1.14, "robust z-score, replicate 3": -0.97, "Outcome": "inactive"}
{"Gene": "PGBD2", "robust z-score, replicate 1": -1.17, "robust z-score, replicate 2": -1.08, "robust z-score, replicate 3": -1.07, "Outcome": "inactive"}
{"Gene": "TBL1X", "robust z-score, replicate 1": 3.79, "robust z-score, replicate 2": 3.28, "robust z-score, replicate 3": 4.16, "Outcome": "active"}
{"Gene": "USH1G", "robust z-score, replicate 1": 0.578, "robust z-score, replicate 2": 0.81, "robust z-score, replicate 3": 1.61, "Outcome": "inactive"}
{"Gene": "ACCSL", "robust z-score, replicate 1": 1.02, "robust z-score, replicate 2": 0.893, "robust z-score, replicate 3": 0.79, "Outcome": "inactive"}
{"Gene": "GPR119", "robust z-score, replicate 1": -1.41, "robust z-score, replicate 2": -0.634, "robust z-score, replicate 3": -1.39, "Outcome": "inactive"}
{"Gene": "ARSH", "robust z-score, replicate 1": 0.0762, "robust z-score, replicate 2": -0.121, "robust z-score, replicate 3": 0.141, "Outcome": "inactive"}
{"Gene": "LIG4", "robust z-score, replicate 1": 1.07, "robust z-score, replicate 2": -0.0353, "robust z-score, replicate 3": -0.453, "Outcome": "inactive"}
{"Gene": "HAUS1", "robust z-score, replicate 1": 0.43, "robust z-score, replicate 2": 0.0205, "robust z-score, replicate 3": 0.0649, "Outcome": "inactive"}
{"Gene": "PRKACA", "robust z-score, replicate 1": -1.27, "robust z-score, replicate 2": -1.27, "robust z-score, replicate 3": -1.02, "Outcome": "inactive"}
{"Gene": "WDR72", "robust z-score, replicate 1": 1.61, "robust z-score, replicate 2": 1.99, "robust z-score, replicate 3": 2.34, "Outcome": "active"}
{"Gene": "NPSR1", "robust z-score, replicate 1": 0.659, "robust z-score, replicate 2": 0.338, "robust z-score, replicate 3": 0.688, "Outcome": "inactive"}
{"Gene": "KCTD21", "robust z-score, replicate 1": -0.325, "robust z-score, replicate 2": -0.565, "robust z-score, replicate 3": -0.287, "Outcome": "inactive"}
{"Gene": "TM9SF2", "robust z-score, replicate 1": 0.776, "robust z-score, replicate 2": 1.03, "robust z-score, replicate 3": 0.981, "Outcome": "inactive"}
{"Gene": "PLPP7", "robust z-score, replicate 1": 1.43, "robust z-score, replicate 2": 1.45, "robust z-score, replicate 3": 1.48, "Outcome": "inactive"}
{"Gene": "LOC442007 (retired record)", "robust z-score, replicate 1": -0.651, "robust z-score, replicate 2": 0.127, "robust z-score, replicate 3": -0.141, "Outcome": "inactive"}

Entries listed so far with an active call, once more:
{"Gene": "TBL1X", "robust z-score, replicate 1": 3.79, "robust z-score, replicate 2": 3.28, "robust z-score, replicate 3": 4.16, "Outcome": "active"}
{"Gene": "WDR72", "robust z-score, replicate 1": 1.61, "robust z-score, replicate 2": 1.99, "robust z-score, replicate 3": 2.34, "Outcome": "active"}
